Counter-ions that a name gives are not always drawn. The list shows a part of the results. Hit calls seldom repeat between salt and free forms of one compound.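 Kinases, fused to nanoluciferase, were expressed in K562 cells; luminescence was measured every 4 h from 2 to 18 h as percent of control (DMSO = 100%, positive control = 0%). A time point is decreased if signal falls significantly (2 sigma). Hits were called by the authors by a rule that is not shown; the count of time points alone does not decide it.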
Legend:
Details in all cases: K562; 2-18 h
STK38 = STK38 (UniProt Q15208); assay: kinase-Nluc reporter destabilization hit call (1 = scored as downregulated) (binary); higher = compound decreases kinase abundance
SYK = SYK (UniProt P43405); assay: as above
TEC = TEC (UniProt P42680); assay: as above
TYK2 = TYK2 (UniProt P29597); assay: as above
ULK3 = ULK3 (UniProt Q6PHR2); assay: as above
YES1 = YES1 (UniProt P07947); assay: as above
ZAK = ZAK (UniProt Q9NYL2); assay: as above
ZAP70 = ZAP70 (UniProt P43403); assay: as above
ABL1 = ABL1 (UniProt P00519); assay: number of time points (of 5) at which kinase-Nluc abundance scored as decreased, DMSO-normalised (count); higher = more persistent destabilization
AKT1 = AKT1 (UniProt P31749); assay: as above
ALK = ALK (UniProt Q9UM73); assay: as above
ARAF = ARAF (UniProt P10398); assay: as above
AURKA = AURKA (UniProt O14965); assay: as above
AURKB = AURKB (UniProt Q96GD4); assay: as above
AURKC = AURKC (UniProt Q9UQB9); assay: as above
BLK = BLK (UniProt P51451); assay: as above
BMX = BMX (UniProt P51813); assay: as above
BRAF = BRAF (UniProt P15056); assay: as above
BRAF_V600E = assay: as above
BTK = BTK (UniProt Q06187); assay: as above

The chains behind the UniProt entries cited, without tags or fusion partners. Where a name states a change or a piece, a line headed by the entry shows the natural chain unless it says otherwise.
UniProt P42680: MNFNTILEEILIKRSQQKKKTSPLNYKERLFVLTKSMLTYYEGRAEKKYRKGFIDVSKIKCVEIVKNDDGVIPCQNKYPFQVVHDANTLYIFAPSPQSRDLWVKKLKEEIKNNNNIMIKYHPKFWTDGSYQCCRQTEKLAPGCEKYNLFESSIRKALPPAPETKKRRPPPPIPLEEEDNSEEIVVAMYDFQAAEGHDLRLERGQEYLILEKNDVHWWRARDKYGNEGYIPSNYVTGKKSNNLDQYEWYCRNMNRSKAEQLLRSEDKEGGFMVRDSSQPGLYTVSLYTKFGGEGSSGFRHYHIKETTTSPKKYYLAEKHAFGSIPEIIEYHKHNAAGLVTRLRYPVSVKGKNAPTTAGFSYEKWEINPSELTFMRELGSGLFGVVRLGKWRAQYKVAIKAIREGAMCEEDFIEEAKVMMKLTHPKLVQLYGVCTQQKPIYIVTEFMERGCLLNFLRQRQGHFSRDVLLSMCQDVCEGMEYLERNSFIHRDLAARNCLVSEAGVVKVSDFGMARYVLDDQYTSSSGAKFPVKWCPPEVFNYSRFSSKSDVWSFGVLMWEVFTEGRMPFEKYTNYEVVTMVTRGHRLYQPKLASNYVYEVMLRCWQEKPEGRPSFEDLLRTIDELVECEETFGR
UniProt P29597: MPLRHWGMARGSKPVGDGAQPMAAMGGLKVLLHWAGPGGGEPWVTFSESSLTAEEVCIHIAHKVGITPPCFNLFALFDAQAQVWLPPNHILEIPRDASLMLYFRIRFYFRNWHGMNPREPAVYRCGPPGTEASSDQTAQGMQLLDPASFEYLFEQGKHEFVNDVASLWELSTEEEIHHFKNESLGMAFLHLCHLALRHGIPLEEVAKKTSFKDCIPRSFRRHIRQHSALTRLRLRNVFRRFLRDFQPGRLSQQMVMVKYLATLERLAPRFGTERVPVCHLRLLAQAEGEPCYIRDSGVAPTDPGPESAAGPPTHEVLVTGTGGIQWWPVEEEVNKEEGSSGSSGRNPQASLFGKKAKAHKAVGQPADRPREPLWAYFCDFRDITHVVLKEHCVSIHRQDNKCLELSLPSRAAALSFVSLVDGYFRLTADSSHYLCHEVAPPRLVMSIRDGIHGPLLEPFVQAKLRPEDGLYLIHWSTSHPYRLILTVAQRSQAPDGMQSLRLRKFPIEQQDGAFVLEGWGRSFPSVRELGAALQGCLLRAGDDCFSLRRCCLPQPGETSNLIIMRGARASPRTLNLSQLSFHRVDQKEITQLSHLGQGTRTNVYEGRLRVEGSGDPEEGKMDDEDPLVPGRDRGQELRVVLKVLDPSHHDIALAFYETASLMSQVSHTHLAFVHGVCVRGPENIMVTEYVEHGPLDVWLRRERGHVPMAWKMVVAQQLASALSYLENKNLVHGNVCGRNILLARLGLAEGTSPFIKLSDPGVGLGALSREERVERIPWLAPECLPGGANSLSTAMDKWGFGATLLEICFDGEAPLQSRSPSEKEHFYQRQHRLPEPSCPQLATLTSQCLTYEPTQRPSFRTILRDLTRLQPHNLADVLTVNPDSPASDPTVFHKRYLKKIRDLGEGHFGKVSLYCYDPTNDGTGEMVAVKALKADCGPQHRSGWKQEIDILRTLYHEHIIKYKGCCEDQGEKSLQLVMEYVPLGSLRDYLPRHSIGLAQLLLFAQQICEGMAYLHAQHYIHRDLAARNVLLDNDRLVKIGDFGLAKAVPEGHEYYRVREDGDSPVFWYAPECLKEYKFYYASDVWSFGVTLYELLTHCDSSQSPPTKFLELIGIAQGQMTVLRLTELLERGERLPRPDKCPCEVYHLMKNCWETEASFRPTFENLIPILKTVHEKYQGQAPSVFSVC
UniProt Q6PHR2: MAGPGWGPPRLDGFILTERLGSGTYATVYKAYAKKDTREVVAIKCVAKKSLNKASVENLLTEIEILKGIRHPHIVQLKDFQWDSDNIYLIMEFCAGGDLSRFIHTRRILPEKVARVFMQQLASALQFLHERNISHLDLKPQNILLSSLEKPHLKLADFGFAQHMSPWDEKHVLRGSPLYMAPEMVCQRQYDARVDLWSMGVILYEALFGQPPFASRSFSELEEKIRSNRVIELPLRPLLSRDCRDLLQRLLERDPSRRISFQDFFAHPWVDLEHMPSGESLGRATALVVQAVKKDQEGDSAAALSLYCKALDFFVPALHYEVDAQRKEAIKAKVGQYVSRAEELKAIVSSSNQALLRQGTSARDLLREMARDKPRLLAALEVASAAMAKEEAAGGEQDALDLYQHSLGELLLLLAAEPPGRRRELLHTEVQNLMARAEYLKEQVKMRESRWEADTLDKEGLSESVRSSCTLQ
UniProt P31749: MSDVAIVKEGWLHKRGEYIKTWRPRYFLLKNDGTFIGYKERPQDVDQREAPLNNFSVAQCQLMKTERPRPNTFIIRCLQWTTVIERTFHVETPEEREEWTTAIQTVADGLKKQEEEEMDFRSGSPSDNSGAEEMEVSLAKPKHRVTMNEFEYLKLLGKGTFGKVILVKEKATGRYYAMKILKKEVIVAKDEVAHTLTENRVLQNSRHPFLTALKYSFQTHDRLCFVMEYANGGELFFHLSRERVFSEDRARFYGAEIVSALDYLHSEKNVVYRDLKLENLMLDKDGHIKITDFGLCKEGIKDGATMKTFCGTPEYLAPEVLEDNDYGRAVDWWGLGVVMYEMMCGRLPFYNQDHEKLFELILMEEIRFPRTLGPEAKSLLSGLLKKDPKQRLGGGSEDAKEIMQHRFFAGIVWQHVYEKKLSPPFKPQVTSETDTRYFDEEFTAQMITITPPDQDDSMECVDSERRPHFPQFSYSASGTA
UniProt Q9UM73: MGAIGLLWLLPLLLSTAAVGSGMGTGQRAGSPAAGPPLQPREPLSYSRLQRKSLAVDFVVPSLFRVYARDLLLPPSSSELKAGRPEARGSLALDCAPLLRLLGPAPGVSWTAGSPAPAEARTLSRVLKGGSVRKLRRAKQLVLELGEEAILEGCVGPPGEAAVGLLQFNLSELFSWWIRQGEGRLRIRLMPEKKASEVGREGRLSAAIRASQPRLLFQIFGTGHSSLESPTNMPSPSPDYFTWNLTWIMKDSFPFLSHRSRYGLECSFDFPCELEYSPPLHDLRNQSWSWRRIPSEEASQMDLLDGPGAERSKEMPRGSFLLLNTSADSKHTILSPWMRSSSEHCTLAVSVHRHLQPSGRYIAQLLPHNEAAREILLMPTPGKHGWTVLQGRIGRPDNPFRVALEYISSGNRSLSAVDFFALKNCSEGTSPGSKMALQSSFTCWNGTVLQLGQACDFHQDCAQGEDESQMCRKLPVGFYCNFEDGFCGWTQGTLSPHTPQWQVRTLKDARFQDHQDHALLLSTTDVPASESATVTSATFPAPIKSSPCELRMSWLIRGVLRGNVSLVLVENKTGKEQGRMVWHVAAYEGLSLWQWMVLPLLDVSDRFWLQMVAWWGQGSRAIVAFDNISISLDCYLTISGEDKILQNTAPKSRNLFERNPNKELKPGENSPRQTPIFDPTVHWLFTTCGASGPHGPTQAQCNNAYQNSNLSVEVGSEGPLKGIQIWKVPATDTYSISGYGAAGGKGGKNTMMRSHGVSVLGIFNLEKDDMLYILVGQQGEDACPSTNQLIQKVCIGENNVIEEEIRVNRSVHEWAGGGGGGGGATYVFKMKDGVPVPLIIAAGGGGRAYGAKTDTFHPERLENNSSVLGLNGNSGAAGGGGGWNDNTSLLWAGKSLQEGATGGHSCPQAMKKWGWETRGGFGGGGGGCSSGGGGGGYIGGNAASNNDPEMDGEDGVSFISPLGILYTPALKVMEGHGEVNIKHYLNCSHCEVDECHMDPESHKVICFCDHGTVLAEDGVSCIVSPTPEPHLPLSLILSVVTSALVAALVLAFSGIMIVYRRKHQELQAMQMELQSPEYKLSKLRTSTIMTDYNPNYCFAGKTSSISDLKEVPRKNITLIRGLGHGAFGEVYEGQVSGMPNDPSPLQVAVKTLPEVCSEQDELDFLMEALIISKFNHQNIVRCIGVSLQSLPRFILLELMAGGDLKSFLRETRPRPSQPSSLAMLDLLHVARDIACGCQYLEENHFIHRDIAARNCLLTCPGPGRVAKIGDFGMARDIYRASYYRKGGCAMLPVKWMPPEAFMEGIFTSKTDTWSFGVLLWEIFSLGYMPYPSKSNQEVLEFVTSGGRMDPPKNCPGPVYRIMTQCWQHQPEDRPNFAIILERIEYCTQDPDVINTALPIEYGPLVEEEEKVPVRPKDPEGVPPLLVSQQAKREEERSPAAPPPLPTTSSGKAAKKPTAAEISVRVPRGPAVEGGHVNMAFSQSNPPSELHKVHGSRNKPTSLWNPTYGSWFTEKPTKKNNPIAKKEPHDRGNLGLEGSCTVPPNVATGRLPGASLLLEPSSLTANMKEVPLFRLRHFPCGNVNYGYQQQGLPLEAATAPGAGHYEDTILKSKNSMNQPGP
UniProt P10398: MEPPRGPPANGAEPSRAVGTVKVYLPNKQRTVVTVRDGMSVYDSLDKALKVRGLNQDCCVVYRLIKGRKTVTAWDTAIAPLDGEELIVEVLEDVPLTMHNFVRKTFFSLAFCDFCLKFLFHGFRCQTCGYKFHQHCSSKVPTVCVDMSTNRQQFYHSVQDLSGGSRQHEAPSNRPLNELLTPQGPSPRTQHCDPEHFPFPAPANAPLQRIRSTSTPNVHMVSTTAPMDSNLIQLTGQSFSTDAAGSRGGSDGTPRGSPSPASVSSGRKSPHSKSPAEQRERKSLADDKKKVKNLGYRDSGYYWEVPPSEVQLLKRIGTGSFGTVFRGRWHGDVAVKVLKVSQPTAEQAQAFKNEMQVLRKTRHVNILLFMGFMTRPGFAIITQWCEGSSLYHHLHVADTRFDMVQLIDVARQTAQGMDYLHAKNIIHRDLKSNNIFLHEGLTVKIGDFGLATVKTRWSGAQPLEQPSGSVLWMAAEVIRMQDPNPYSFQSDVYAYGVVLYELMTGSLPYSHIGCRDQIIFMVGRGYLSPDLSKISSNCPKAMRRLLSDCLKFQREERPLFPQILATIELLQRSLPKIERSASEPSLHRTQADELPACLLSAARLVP
UniProt O14965: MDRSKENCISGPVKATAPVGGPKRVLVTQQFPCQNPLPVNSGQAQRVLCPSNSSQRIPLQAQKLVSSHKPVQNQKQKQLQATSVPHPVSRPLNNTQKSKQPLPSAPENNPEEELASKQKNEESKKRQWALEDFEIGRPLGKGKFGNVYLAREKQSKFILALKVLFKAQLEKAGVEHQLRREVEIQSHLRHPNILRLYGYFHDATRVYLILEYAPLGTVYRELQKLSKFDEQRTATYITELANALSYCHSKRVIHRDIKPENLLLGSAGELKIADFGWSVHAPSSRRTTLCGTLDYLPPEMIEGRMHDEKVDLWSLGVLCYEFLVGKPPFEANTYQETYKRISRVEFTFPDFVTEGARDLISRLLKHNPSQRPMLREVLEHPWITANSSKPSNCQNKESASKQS
UniProt Q9UQB9: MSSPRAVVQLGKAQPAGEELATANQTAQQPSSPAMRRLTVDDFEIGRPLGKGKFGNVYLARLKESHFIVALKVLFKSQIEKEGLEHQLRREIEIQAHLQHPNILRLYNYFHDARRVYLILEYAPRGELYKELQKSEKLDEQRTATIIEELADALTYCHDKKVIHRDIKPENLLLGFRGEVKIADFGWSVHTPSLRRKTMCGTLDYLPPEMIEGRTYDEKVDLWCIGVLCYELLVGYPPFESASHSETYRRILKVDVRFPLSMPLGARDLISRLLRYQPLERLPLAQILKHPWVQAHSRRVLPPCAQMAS
UniProt P51813: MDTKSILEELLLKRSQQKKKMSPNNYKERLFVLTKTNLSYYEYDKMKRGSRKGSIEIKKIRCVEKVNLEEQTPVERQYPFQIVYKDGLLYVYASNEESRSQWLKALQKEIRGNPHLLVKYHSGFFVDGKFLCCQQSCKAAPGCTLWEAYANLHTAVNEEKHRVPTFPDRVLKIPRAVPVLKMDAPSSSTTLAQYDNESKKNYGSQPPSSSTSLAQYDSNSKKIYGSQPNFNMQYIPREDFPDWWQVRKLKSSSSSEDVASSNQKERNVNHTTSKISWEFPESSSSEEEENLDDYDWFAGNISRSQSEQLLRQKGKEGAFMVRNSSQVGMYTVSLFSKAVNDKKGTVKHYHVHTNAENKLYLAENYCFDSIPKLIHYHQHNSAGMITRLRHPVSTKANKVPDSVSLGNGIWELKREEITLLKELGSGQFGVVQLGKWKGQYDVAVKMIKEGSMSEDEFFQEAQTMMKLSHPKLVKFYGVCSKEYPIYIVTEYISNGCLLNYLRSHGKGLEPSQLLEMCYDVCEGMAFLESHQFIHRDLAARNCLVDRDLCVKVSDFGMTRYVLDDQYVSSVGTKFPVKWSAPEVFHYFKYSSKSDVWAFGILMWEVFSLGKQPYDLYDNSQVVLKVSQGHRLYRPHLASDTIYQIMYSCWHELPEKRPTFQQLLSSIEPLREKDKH

COc1ncc(Nc2ncc([C@@H](C)N3CCN(S(C)(=O)=O)CC3)cc2-c2nc(C)nc(N)n2)cc1F (10 µM)
inactive: kinase-Nluc reporter destabilization hit call (STK38) 0 | kinase-Nluc reporter destabilization hit call (SYK) 0 | kinase-Nluc reporter destabilization hit call (TEC) 0 | kinase-Nluc reporter destabilization hit call (TYK2) 0 | kinase-Nluc reporter destabilization hit call (ULK3) 0 | kinase-Nluc reporter destabilization hit call (YES1) 0 | kinase-Nluc reporter destabilization hit call (ZAK) 0 | kinase-Nluc reporter destabilization hit call (ZAP70) 0
0: number of time points (ABL1) | number of time points (AKT1) | number of time points (ALK) | number of time points (ARAF) | number of time points (AURKA) | number of time points (AURKB) | number of time points (AURKC) | number of time points (BMX) | number of time points (BRAF) | number of time points (BRAF_V600E) | number of time points (BTK)
1: number of time points (BLK)

CC(C)(O)[C@@H]1CC[C@](C)([C@H]2[C@@H](O)C[C@@]3(C)[C@@H]4C[C@H](O[C@@H]5O[C@H](CO)[C@@H](O)[C@H](O)[C@H]5O)[C@H]5C(C)(C)[C@@H](O[C@@H]6OC[C@@H](O)[C@H](O)[C@H]6O[C@@H]6O[C@H](CO)[C@@H](O)[C@H](O)[C@H]6O)CC[C@@]56C[C@@]46CC[C@]23C)O1 [Astragaloside VI] (10 µM)
inactive: kinase-Nluc reporter destabilization hit call (STK38) 0 | kinase-Nluc reporter destabilization hit call (SYK) 0 | kinase-Nluc reporter destabilization hit call (TEC) 0 | kinase-Nluc reporter destabilization hit call (TYK2) 0 | kinase-Nluc reporter destabilization hit call (ULK3) 0 | kinase-Nluc reporter destabilization hit call (YES1) 0 | kinase-Nluc reporter destabilization hit call (ZAK) 0 | kinase-Nluc reporter destabilization hit call (ZAP70) 0
0: number of time points (ABL1) | number of time points (AKT1) | number of time points (ALK) | number of time points (ARAF) | number of time points (AURKA) | number of time points (AURKB) | number of time points (AURKC) | number of time points (BLK) | number of time points (BMX) | number of time points (BRAF) | number of time points (BRAF_V600E) | number of time points (BTK)

N=C(N)NC(=N)NCCc1ccccc1 [Phenformin (hydrochloride)] (10 µM)
0: number of time points (AKT1) | number of time points (ALK) | number of time points (ARAF) | number of time points (AURKA) | number of time points (AURKB) | number of time points (AURKC) | number of time points (BLK) | number of time points (BMX) | number of time points (BRAF) | number of time points (BRAF_V600E) | number of time points (BTK)
inactive: kinase-Nluc reporter destabilization hit call (STK38) 0 | kinase-Nluc reporter destabilization hit call (SYK) 0 | kinase-Nluc reporter destabilization hit call (TEC) 0 | kinase-Nluc reporter destabilization hit call (TYK2) 0 | kinase-Nluc reporter destabilization hit call (ULK3) 0 | kinase-Nluc reporter destabilization hit call (YES1) 0 | kinase-Nluc reporter destabilization hit call (ZAK) 0 | kinase-Nluc reporter destabilization hit call (ZAP70) 0
1: number of time points (ABL1)

C=C(F)C(=O)N1CCN(c2nc(OC[C@@H]3CCCN3C)nc3c2CCN(c2cccc4cccc(Cl)c24)C3)C[C@@H]1CC#N (2.5 µM)
0: number of time points (ABL1) | number of time points (AKT1) | number of time points (ALK) | number of time points (ARAF) | number of time points (AURKA) | number of time points (AURKB) | number of time points (AURKC) | number of time points (BLK) | number of time points (BMX) | number of time points (BRAF) | number of time points (BRAF_V600E) | number of time points (BTK)
inactive: kinase-Nluc reporter destabilization hit call (STK38) 0 | kinase-Nluc reporter destabilization hit call (SYK) 0 | kinase-Nluc reporter destabilization hit call (TEC) 0 | kinase-Nluc reporter destabilization hit call (TYK2) 0 | kinase-Nluc reporter destabilization hit call (ULK3) 0 | kinase-Nluc reporter destabilization hit call (YES1) 0 | kinase-Nluc reporter destabilization hit call (ZAK) 0 | kinase-Nluc reporter destabilization hit call (ZAP70) 0

N#C/C(=C\c1ccc2oc(=O)[nH]c2c1)C(=O)c1ccc(O)c(O)c1 (10 µM)
0: number of time points (ABL1) | number of time points (AKT1) | number of time points (ALK) | number of time points (ARAF) | number of time points (AURKA) | number of time points (AURKB) | number of time points (AURKC) | number of time points (BLK) | number of time points (BMX) | number of time points (BRAF) | number of time points (BRAF_V600E) | number of time points (BTK)
inactive: kinase-Nluc reporter destabilization hit call (STK38) 0 | kinase-Nluc reporter destabilization hit call (SYK) 0 | kinase-Nluc reporter destabilization hit call (TEC) 0 | kinase-Nluc reporter destabilization hit call (TYK2) 0 | kinase-Nluc reporter destabilization hit call (ULK3) 0 | kinase-Nluc reporter destabilization hit call (YES1) 0 | kinase-Nluc reporter destabilization hit call (ZAK) 0 | kinase-Nluc reporter destabilization hit call (ZAP70) 0

CN(C)C(=O)c1ccc(S(=O)(=O)c2ccc(NC(=O)[C@@](C)(O)C(F)(F)F)c(Cl)c2)cc1 (10 µM)
0: number of time points (ABL1) | number of time points (AKT1) | number of time points (ALK) | number of time points (ARAF) | number of time points (AURKA) | number of time points (AURKB) | number of time points (BLK) | number of time points (BMX) | number of time points (BRAF) | number of time points (BRAF_V600E) | number of time points (BTK)
1: number of time points (AURKC)
inactive: kinase-Nluc reporter destabilization hit call (STK38) 0 | kinase-Nluc reporter destabilization hit call (SYK) 0 | kinase-Nluc reporter destabilization hit call (TEC) 0 | kinase-Nluc reporter destabilization hit call (TYK2) 0 | kinase-Nluc reporter destabilization hit call (ULK3) 0 | kinase-Nluc reporter destabilization hit call (YES1) 0 | kinase-Nluc reporter destabilization hit call (ZAK) 0 | kinase-Nluc reporter destabilization hit call (ZAP70) 0

CCc1ccc(C(=O)COc2ccc(CC3SC(=O)NC3=O)cc2)nc1 (stereo not given) (10 µM)
0: number of time points (ABL1) | number of time points (AKT1) | number of time points (ALK) | number of time points (ARAF) | number of time points (AURKA) | number of time points (AURKB) | number of time points (AURKC) | number of time points (BLK) | number of time points (BMX) | number of time points (BRAF) | number of time points (BRAF_V600E) | number of time points (BTK)
inactive: kinase-Nluc reporter destabilization hit call (STK38) 0 | kinase-Nluc reporter destabilization hit call (SYK) 0 | kinase-Nluc reporter destabilization hit call (TEC) 0 | kinase-Nluc reporter destabilization hit call (TYK2) 0 | kinase-Nluc reporter destabilization hit call (ULK3) 0 | kinase-Nluc reporter destabilization hit call (YES1) 0 | kinase-Nluc reporter destabilization hit call (ZAK) 0 | kinase-Nluc reporter destabilization hit call (ZAP70) 0

COc1nc(-c2cccc3c2OCCO3)ccc1Nc1ccc(CN(C)C)cc1 [RAS inhibitor Abd-7] (10 µM)
inactive: kinase-Nluc reporter destabilization hit call (STK38) 0 | kinase-Nluc reporter destabilization hit call (SYK) 0 | kinase-Nluc reporter destabilization hit call (TEC) 0 | kinase-Nluc reporter destabilization hit call (TYK2) 0 | kinase-Nluc reporter destabilization hit call (ULK3) 0 | kinase-Nluc reporter destabilization hit call (YES1) 0 | kinase-Nluc reporter destabilization hit call (ZAK) 0 | kinase-Nluc reporter destabilization hit call (ZAP70) 0
0: number of time points (ABL1) | number of time points (AKT1) | number of time points (ALK) | number of time points (ARAF) | number of time points (AURKA) | number of time points (AURKB) | number of time points (AURKC) | number of time points (BLK) | number of time points (BMX) | number of time points (BRAF) | number of time points (BRAF_V600E) | number of time points (BTK)

COc1ccc2c(c1OC)OC1c3ccc(O)cc3OCC21 (stereo not given) [Methylnissolin] (10 µM)
0: number of time points (ABL1) | number of time points (AKT1) | number of time points (ALK) | number of time points (ARAF) | number of time points (AURKA) | number of time points (AURKB) | number of time points (AURKC) | number of time points (BLK) | number of time points (BMX) | number of time points (BRAF) | number of time points (BTK)
inactive: kinase-Nluc reporter destabilization hit call (STK38) 0 | kinase-Nluc reporter destabilization hit call (SYK) 0 | kinase-Nluc reporter destabilization hit call (TEC) 0 | kinase-Nluc reporter destabilization hit call (TYK2) 0 | kinase-Nluc reporter destabilization hit call (ULK3) 0 | kinase-Nluc reporter destabilization hit call (YES1) 0 | kinase-Nluc reporter destabilization hit call (ZAK) 0 | kinase-Nluc reporter destabilization hit call (ZAP70) 0
2: number of time points (BRAF_V600E)

Two successive compounds out of the list so far, quoted:
N#C/C(=C\c1ccc2oc(=O)[nH]c2c1)C(=O)c1ccc(O)c(O)c1 (10 µM)
0: number of time points (ABL1) | number of time points (AKT1) | number of time points (ALK) | number of time points (ARAF) | number of time points (AURKA) | number of time points (AURKB) | number of time points (AURKC) | number of time points (BLK) | number of time points (BMX) | number of time points (BRAF) | number of time points (BRAF_V600E) | number of time points (BTK)
inactive: kinase-Nluc reporter destabilization hit call (STK38) 0 | kinase-Nluc reporter destabilization hit call (SYK) 0 | kinase-Nluc reporter destabilization hit call (TEC) 0 | kinase-Nluc reporter destabilization hit call (TYK2) 0 | kinase-Nluc reporter destabilization hit call (ULK3) 0 | kinase-Nluc reporter destabilization hit call (YES1) 0 | kinase-Nluc reporter destabilization hit call (ZAK) 0 | kinase-Nluc reporter destabilization hit call (ZAP70) 0

CN(C)C(=O)c1ccc(S(=O)(=O)c2ccc(NC(=O)[C@@](C)(O)C(F)(F)F)c(Cl)c2)cc1 (10 µM)
0: number of time points (ABL1) | number of time points (AKT1) | number of time points (ALK) | number of time points (ARAF) | number of time points (AURKA) | number of time points (AURKB) | number of time points (BLK) | number of time points (BMX) | number of time points (BRAF) | number of time points (BRAF_V600E) | number of time points (BTK)
1: number of time points (AURKC)
inactive: kinase-Nluc reporter destabilization hit call (STK38) 0 | kinase-Nluc reporter destabilization hit call (SYK) 0 | kinase-Nluc reporter destabilization hit call (TEC) 0 | kinase-Nluc reporter destabilization hit call (TYK2) 0 | kinase-Nluc reporter destabilization hit call (ULK3) 0 | kinase-Nluc reporter destabilization hit call (YES1) 0 | kinase-Nluc reporter destabilization hit call (ZAK) 0 | kinase-Nluc reporter destabilization hit call (ZAP70) 0

(listing goes on)

O=S(=O)(c1cccc2cnccc12)N1CCNCC1 (10 µM)
0: number of time points (ABL1) | number of time points (AKT1) | number of time points (ALK) | number of time points (ARAF) | number of time points (AURKA) | number of time points (AURKB) | number of time points (AURKC) | number of time points (BLK) | number of time points (BMX) | number of time points (BRAF) | number of time points (BRAF_V600E) | number of time points (BTK)
inactive: kinase-Nluc reporter destabilization hit call (STK38) 0 | kinase-Nluc reporter destabilization hit call (SYK) 0 | kinase-Nluc reporter destabilization hit call (TEC) 0 | kinase-Nluc reporter destabilization hit call (TYK2) 0 | kinase-Nluc reporter destabilization hit call (ULK3) 0 | kinase-Nluc reporter destabilization hit call (YES1) 0 | kinase-Nluc reporter destabilization hit call (ZAK) 0 | kinase-Nluc reporter destabilization hit call (ZAP70) 0
